Measured values: PMC6450972
These are yes or no findings as the source states them, for the method shown. Binding seen in cells or lysates may run through a third protein. Some binding calls cover weakened binding; strength is not graded here. Sequences can lack the tags named with a protein.

Amino acid sequences for entries named in this document (tags omitted).
UniProt O60934: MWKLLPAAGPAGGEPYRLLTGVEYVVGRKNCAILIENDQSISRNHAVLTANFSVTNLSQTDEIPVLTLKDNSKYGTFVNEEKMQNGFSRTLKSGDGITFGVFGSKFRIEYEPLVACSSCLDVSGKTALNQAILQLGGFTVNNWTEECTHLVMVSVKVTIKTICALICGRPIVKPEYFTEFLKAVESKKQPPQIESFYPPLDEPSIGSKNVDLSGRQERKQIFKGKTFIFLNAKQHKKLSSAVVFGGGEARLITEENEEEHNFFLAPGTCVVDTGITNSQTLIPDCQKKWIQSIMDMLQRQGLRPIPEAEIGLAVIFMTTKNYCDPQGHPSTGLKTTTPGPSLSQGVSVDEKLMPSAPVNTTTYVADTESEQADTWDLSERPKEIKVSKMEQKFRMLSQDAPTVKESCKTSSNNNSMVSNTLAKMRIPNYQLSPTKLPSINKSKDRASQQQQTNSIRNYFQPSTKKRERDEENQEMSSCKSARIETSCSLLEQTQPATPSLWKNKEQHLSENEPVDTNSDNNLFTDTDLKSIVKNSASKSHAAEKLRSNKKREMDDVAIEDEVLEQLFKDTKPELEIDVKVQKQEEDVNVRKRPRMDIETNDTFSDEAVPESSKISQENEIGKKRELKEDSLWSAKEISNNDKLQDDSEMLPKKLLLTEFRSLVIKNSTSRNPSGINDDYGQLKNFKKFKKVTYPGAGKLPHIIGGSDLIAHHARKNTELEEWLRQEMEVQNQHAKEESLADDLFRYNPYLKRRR

Biological target: FLAG-NBS1 WT (UniProt O60934)
Test: co-IP; GFP-tagged Peli1 and Flag-tagged NBS1 constructs cotransfected, followed by co-immunoprecipitation (Supplementary Fig. 7); cells and precipitating antibody not told in the text shown

B1: GFP-Peli1 ΔC (domain or fragment, UniProt Q96FA3 1-280)
chain: MFSPDQENHPSKAPVKYGELIVLGYNGSLPNGDRGRRKSRFALFKRPKANGVKPSTVHIACTPQAAKAISNKDQHSISYTLSRAQTVVVEYTHDSNTDMFQIGRSTESPIDFVVTDTVPGSQSNSDTQSVQSTISRFACRIICERNPPFTARIYAAGFDSSKNIFLGEKAAKWKTSDGQMDGLTTNGVLVMHPRNGFTEDSKPGIWREISVCGNVFSLRETRSAQQRGKMVEIETNQLQDGSLIDLCGATLLWRTAEGLSHTPTVKHLEALRQEINAARP
  binding: binds
